Measured values reported in patent US7329489B2, “Methods for drug discovery, disease treatment, and diagnosis using metabolomics” (Matabolon, Inc., priority 2000, dated 2008).

Tested on: plasma metabolome of ALS patients

Nc1nc2ccc(OC(F)(F)F)cc2s1 [Riluzole]
effect of the drug on endogenous cellular metabolites (plasma of ALS patients on Riluzole, after complete unblinding): A series of endogenous cellular metabolites induced by the drug Riluzole were identified
number of compounds increased in patients on Riluzole (HPLC analysis of the metabolome) (versus controls, FIG. 6B): 17 compounds
